The text below walks through data of PMC7592398.

No constants are given. Whether binding was seen depends on the method and setting. Binding seen in cells or lysates may run through a third protein. Some binding calls cover weakened binding; strength is not graded here. Tags and fused reporters may be left off the sequences shown.

Test [1] deals with T1, FLAG-tagged wild-type MKS1 (human) (UniProt Q9NXB0).
T1 sequence: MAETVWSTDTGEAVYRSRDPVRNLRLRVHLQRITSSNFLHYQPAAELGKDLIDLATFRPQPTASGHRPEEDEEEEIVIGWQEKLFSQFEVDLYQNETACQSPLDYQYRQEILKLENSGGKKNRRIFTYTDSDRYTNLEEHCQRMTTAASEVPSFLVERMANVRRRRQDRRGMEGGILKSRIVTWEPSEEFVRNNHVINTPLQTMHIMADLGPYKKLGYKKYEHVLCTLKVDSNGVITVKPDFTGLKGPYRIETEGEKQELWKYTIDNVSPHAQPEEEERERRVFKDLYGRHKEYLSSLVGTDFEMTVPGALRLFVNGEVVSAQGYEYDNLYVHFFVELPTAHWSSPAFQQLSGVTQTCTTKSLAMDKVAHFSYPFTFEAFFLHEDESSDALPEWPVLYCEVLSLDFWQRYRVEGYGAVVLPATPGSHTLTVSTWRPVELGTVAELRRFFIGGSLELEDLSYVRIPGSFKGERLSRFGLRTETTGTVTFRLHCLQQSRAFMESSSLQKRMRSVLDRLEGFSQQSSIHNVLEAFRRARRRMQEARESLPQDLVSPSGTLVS
The test is described as follows: co-IP; transfected HEK293T cells; lysis in 20 mM Tris-HCl pH 7.5, 150 mM NaCl, 0.5 mM EDTA, 0.5% Triton X-100; FLAG-MKS1 variants captured on FLAG M2 beads 2 h at 4°C, eluted with 3xFLAG peptide; blot with anti-FLAG and anti-HA.

Test [2] concerns the target T2, FLAG-tagged MKS1 1-353 (human) (UniProt Q9NXB0).
T2 sequence: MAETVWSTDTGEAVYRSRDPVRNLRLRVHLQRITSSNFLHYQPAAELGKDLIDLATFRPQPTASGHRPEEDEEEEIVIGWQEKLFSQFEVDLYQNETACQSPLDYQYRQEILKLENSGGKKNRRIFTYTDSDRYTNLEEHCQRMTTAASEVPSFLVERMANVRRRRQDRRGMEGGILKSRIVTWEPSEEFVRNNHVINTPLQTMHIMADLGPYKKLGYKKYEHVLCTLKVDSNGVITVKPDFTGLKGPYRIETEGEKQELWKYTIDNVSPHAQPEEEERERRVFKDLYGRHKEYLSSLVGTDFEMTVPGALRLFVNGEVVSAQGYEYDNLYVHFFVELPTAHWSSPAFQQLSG
Described as above.

B1: HA-tagged B9D2 (protein, UniProt Q9BPU9 1-175)
chain: MAEVHVIGQIIGASGFSESSLFCKWGIHTGAAWKLLSGVREGQTQVDTPQIGDMAYWSHPIDLHFATKGLQGWPRLHFQVWSQDSFGRCQLAGYGFCHVPSSPGTHQLACPTWRPLGSWREQLARAFVGGGPQLLHGDTIYSGADRYRLHTAAGGTVHLEIGLLLRNFDRYGVEC
In the case of B1, the binding result in test [1] is given as “binds”; in test [2] it was “no binding”.
